{"source": "patent US20110151497A1", "about": "“METABOLOMIC PROFILING OF PROSTATE CANCER” (THE REGENTS OF THE UNIVERSITY OF MICHIGAN, priority 2009, published 2011)", "key": {"[1]": {"assay": "Metabolomic profiling of urine (GC-MS, UHPLC-MS): less aggressive (GS major 3) vs more aggressive (GS major 4) prostate cancer", "parameters": "species or system human", "details": "GS major 4 (N=13) vs GS major 3 (N=45)"}, "[2]": {"assay": "Metabolomic profiling of urine (GC-MS, UHPLC-MS): prostate cancer vs biopsy-negative controls", "parameters": "species or system human"}, "[3]": {"assay": "GC-MS (SIM) quantification of polyamines in prostate tissues", "parameters": "species or system human", "details": "normalized to tissue weight"}, "[4]": {"test_system": "breast cancer cell lines (MCF7, MDA-MB-231, T470, SKBR3) vs MCF 10A", "assay": "GC-MS validation of polyamines in breast cell lines", "format": "cell-based"}, "[5]": {"assay": "GC-MS quantification of multiple metabolites in biopsy-positive and biopsy-negative urine sediments", "parameters": "species or system human", "details": "alanine as internal control"}, "[6]": {"details": "sarcosine and N-acetyl tyrosine in combination, urine"}, "[7]": {"details": "two markers in combination, assuming 30% prevalence of cancer in a PSA positive population"}}, "data": [{"molecule": "C/C(=C\\C(=O)O)C(=O)O", "note": "[mesaconate (methylfumarate), mesaconate]", "values": [{"measurement": "% Change in Aggressive PCA", "setting": "[1]", "value": "−48.02", "unit": "%"}]}, {"molecule": "dehydroisoandrosterone sulfate [dehydroisoandrosterone sulfate (DHEA-S)]", "values": [{"measurement": "% change in PCA", "setting": "[2]; urine, level in prostate cancer (59) vs biopsy-negative control (51) individuals", "value": 162.9464, "unit": "%"}]}, {"molecule": "OC[C@H]1O[C@@H](O[C@H]2[C@H](O)[C@@H](O)C(O)O[C@@H]2CO)[C@H](O)[C@@H](O)[C@H]1O", "note": "(stereo partly shown) [lactose]", "values": [{"measurement": "% Change in Aggressive PCA", "setting": "[1]", "value": 108.8, "unit": "%"}]}, {"molecule": "O=C(O)[C@H](O)[C@@H](O)[C@H](O)[C@H](O)CO", "note": "[gluconate]", "values": [{"measurement": "% Change in Aggressive PCA", "setting": "[1]", "value": 135.4, "unit": "%"}]}, {"molecule": "NCCCCN", "note": "[putrescine]", "values": [{"measurement": "levels in benign prostate tissues compared to localized and metastatic prostate cancer tissues", "setting": "[3]", "value": "elevated levels"}, {"measurement": "levels in invasive breast cancer cell lines compared to normal cell line (MCF 10A)", "setting": "[4]", "value": "elevated levels"}]}, {"molecule": "O=C(O)[C@@H](O)[C@@H](O)[C@H](O)[C@@H](O)C(=O)O", "note": "[glucarate (saccharate), glucarate]", "values": [{"measurement": "% Change in Aggressive PCA", "setting": "[1]", "value": 78.74, "unit": "%"}]}, {"molecule": "Cn1c(=O)c2c(ncn2C)n(C)c1=O", "note": "[caffeine]", "values": [{"measurement": "% Change in Aggressive PCA", "setting": "[1]", "value": "−81.72", "unit": "%"}]}, {"molecule": "N[C@@H](CCC(=O)O)C(=O)O", "note": "[glutamic acid]", "values": [{"measurement": "metabolite/alanine ratio of biopsy-positive vs biopsy-negative urine sediments", "setting": "[5]", "value": "higher levels"}]}, {"molecule": "CC(O)C(=O)O", "note": "(stereo not shown) [lactate]", "values": [{"measurement": "% Change in Aggressive PCA", "setting": "[1]", "value": "−29.29", "unit": "%"}]}, {"molecule": "O=C(O)/C=C/C(=O)O", "note": "[fumarate]", "values": [{"measurement": "% Change in Aggressive PCA", "setting": "[1]", "value": "−27.16", "unit": "%"}]}, {"molecule": "NCC(=O)O", "note": "[glycine]", "values": [{"measurement": "metabolite/alanine ratio of biopsy-positive vs biopsy-negative urine sediments", "setting": "[5]", "value": "higher levels"}]}, {"molecule": "CNCC(=O)O", "note": "[sarcosine]", "values": [{"measurement": "metabolite/alanine ratio of biopsy-positive vs biopsy-negative urine sediments", "setting": "[5]", "value": "higher levels"}, {"measurement": "sensitivity of cancer diagnosis", "setting": "[2]; [6]", "value": 83, "unit": "%"}, {"measurement": "specificity of cancer diagnosis", "setting": "[2]; [6]", "value": 49, "unit": "%"}, {"measurement": "Negative Predictive Value (NPV)", "setting": "[2]; [7]", "value": 87, "unit": "%"}, {"measurement": "Positive Predictive Value (PPV)", "setting": "[2]; [7]", "value": 41, "unit": "%"}]}, {"molecule": "NCCCCNCCCN", "note": "[spermidine]", "values": [{"measurement": "levels in benign prostate tissues compared to localized and metastatic prostate cancer tissues", "setting": "[3]", "value": "elevated levels"}, {"measurement": "levels in invasive breast cancer cell lines compared to normal cell line (MCF 10A)", "setting": "[4]", "value": "elevated levels"}]}, {"molecule": "NCCCNCCCCNCCCN", "note": "[spermine]", "values": [{"measurement": "levels in benign prostate tissues compared to localized and metastatic prostate cancer tissues", "setting": "[3]", "value": "elevated levels"}, {"measurement": "levels in invasive breast cancer cell lines compared to normal cell line (MCF 10A)", "setting": "[4]", "value": "elevated levels"}]}, {"molecule": "CSCC[C@H](N)C(=O)O", "note": "[methionine]", "values": [{"measurement": "metabolite/alanine ratio of biopsy-positive vs biopsy-negative urine sediments", "setting": "[5]", "value": "no change"}]}]}
